Test results reported in PubChem BioAssay AID2685 (National Center for Advancing Translational Sciences (NCATS), 2010).
The other results are listed elsewhere or left out. Further columns of the screen follow, without active or inactive calls. Compounds called inactive in the main read-out are mostly missing here. Words in brackets tell the shape of the fitted curve; partial curves, single points and poor fits give uncertain potencies.

Test: qHTS Assay for Lipid Storage Modulators in Drosophila S3 Cells;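 as to cell number change: cells counted by Cell Tracker Red CMTPX staining in the red channel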
Details: BODIPY lipid droplet fluorescence, 18-24 h; for cell number change: measured here: cell count max response, cells fed with added oleic acid
How it was run: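 Drosophila S3 cells got compounds at several concentrations plus oleic acid (400 uM solution). Laser-scanning cytometry with 488 nm excitation read lipid droplets at 500-530 nm and cells at 575-640 nm. Percent activity was relative to 20 uM Triacsin C.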

[1] = measured here: cell number channel AC50, cells fed with added oleic acid
[2] = measured here: lipid fluorescence (Fed channel) AC50, cells fed with added oleic acid

SMILES | cell number change [%] | AC50 [1] | AC50 [2]
CCNC(=O)NC(=O)COC(=O)c1cccc(NS(=O)(=O)/C=C/c2ccccc2)c1 | -66.7 | 0.82 µM [falling, full curve] | 
CCn1ncc(C2=NOC(C(=O)Nc3ccccc3C(=O)OC)C2)c1C (configuration not stated) | -11.1 |  | 1.16 µM [rising, single point]
Cc1ccc(S(=O)(=O)N2CCCCC2)cc1NC(=O)c1cnccn1 | 155 | 18.4 µM [rising, single point] | 
COc1ccc(-c2cc3ccccc3oc2=O)cc1NC(=O)c1ccc(Br)o1 | -66.5 | 29.1 µM [falling, single point] | 
CN(C)C(CNC(=O)CCC(=O)c1ccc(Br)cc1)c1ccccc1 (configuration not stated) | -13.9 | 0.731 µM [falling, single point] | 
O=C(CCS(=O)(=O)c1ccccc1)OCc1ccc([N+](=O)[O-])cc1 | 14.7 |  | 0.00517 µM [rising, full curve, poor fit]
CCc1ccc(NC(=O)C2=CC(c3ccc(OC)c(OC)c3)=NS(=O)(=O)N2C)cc1 | -12.1 |  | 7.31 µM [falling, partial curve]
CC(C)NC(=O)CSc1nc2ccccc2c(=O)n1CCCOC(C)C | 10.9 | 1.03 µM [rising, full curve] | 16.4 µM [rising, single point]
Cc1cccc(OCC(=O)N(Cc2ccco2)C2CCS(=O)(=O)C2)c1 (configuration not stated) | 14.7 |  | 
COCCn1c(SCC(=O)N(C)C2CCS(=O)(=O)C2)nc2ccccc2c1=O (configuration not stated) | -33.6 | 0.731 µM [falling, full curve] | 
Cc1ccccc1-n1ncc2c([N+](=O)[O-])cc([N+](=O)[O-])cc21 | 98.5 | 29.1 µM [rising, single point] | 29.1 µM [rising, single point]
CCSc1nnc(NC(=O)CC(C)C)s1 |  |  | 5.8 µM [rising, partial curve]
CCN(C(=O)COC(=O)CNC(=O)c1sc2ccccc2c1Cl)C1CCCCC1 |  | 0.146 µM [rising, full curve, poor fit] | 
O=c1c2c3c(sc2n(CCN2CCCC2)c(=O)n1Cc1ccccc1)CCCCC3 | 4.77 |  | 23.1 µM [rising, single point]
Cc1ccc(S(=O)(=O)N2CC(O)CC2C(=O)OCC(=O)c2ccccc2Cl)cc1C (configuration not stated) | -36.3 | 29.1 µM [falling, single point] | 
Cc1cccc(OCC(=O)N/N=C\c2cccn2C)c1C | -16.6 |  | 
C/C(=N\NC(=O)c1ccccc1)c1ccccc1Br |  |  | 29.1 µM [rising, single point]
Cn1cc(CNCC2CCCO2)c(-c2ccc(Oc3ccccc3)cc2)n1 (configuration not stated) | 7.43 |  | 0.00517 µM [rising, full curve, poor fit]
COc1ccc(CC(=O)N(Cc2ccccc2)c2ccc(C)cc2)cc1OC | 5.41 |  | 
Cc1ccnc(NCc2ccccc2O)c1 | 12.4 |  | 0.0366 µM [rising, single point]

3 of these compounds, set out differently.
SMILES,cell number change [%],AC50 [1],AC50 [2]
CCn1ncc(C2=NOC(C(=O)Nc3ccccc3C(=O)OC)C2)c1C (configuration not stated),-11.1,,"1.16 µM [rising, single point]"
Cc1ccc(S(=O)(=O)N2CCCCC2)cc1NC(=O)c1cnccn1,155,"18.4 µM [rising, single point]",
O=C(CCS(=O)(=O)c1ccccc1)OCc1ccc([N+](=O)[O-])cc1,14.7,,"0.00517 µM [rising, full curve, poor fit]"

More compounds follow.

SMILES | cell number change [%] | AC50 [1] | AC50 [2]
O=C(NCc1nnnn1-c1ccc(F)c(F)c1)c1cc2ccccc2o1 | 40.8 | 5.17 µM [rising, full curve, poor fit] | 
Cc1cc(NC(=O)c2ccc([N+](=O)[O-])cc2Cl)no1 |  | 1.46 µM [rising, partial curve, poor fit] | 
C[n+]1ccccc1/C=N/O | 5.71 |  | 3.26 µM [falling, single point]
CCOC(=O)N1CCc2c(sc3ncn(Cc4ccc(F)cc4)c(=O)c23)C1 | 20.4 | 0.058 µM [rising, full curve, poor fit] | 0.411 µM [rising, full curve]
CN1c2ccccc2C(=O)NC1c1ccc(Cl)cc1 (configuration not stated) | 15.2 | 4.61 µM [falling, single point] | 7.31 µM [falling, single point]
CCOC(=O)C(CC(C)C)CP(=O)(O)CNC(=O)OCc1ccccc1 (configuration not stated) | -12 |  | 3.26 µM [falling, single point]
O=C(O)CC1=C(O)C(=O)N(c2ccccc2)C1c1ccc(Cl)cc1 (configuration not stated) | -26.3 |  | 29.1 µM [falling, single point]
CCCN(C(=O)c1cc(CC)c(C)s1)c1c(N)n(Cc2ccccc2)c(=O)[nH]c1=O | -9.08 |  | 7.31 µM [falling, partial curve]
Cc1ccc(SCC(=O)O/N=C(\N)c2cccnc2)cc1 | 9.54 |  | 
CC(=O)c1c(C)[nH]c(C(=O)OCc2cc(=O)n3cc(Br)ccc3n2)c1C | -25.4 |  | 4.11 µM [rising, partial curve, poor fit]
O=C1N/C(=C/c2ccc(Br)cc2)C(O)=C1C=NCc1ccccc1 | -46.5 | 29.1 µM [falling, single point] | 1.46 µM [rising, partial curve]
CC(=O)NCCNc1ccc([N+](=O)[O-])cc1C#N | -10.6 | 6.51 µM [rising, partial curve, poor fit] | 
O=C(CSc1ncn[nH]1)Nc1ccc2c(c1)OCCO2 | 21.8 |  | 0.461 µM [falling, full curve, poor fit]
O=S(=O)(CCOc1ccccc1)N1CCOCC1 | 1.64 |  | 0.103 µM [falling, full curve, poor fit]
O=C(CNC(=O)c1cnccn1)Nc1ccc(F)c(F)c1F | 45.9 | 29.1 µM [rising, single point] | 
CCC(C)[C@H](NC(=O)N1CCC(C)CC1)C(=O)O (some centres not stated) | -54.7 | 1.84 µM [falling, partial curve] | 32.6 µM [falling, partial curve, poor fit]
Cc1cc(OCCCC(=O)NNC(=O)c2ccncc2)ccc1Cl | 15.6 |  | 2.31 µM [rising, single point]
CCOC(=O)C1=C(Nc2ccccc2)CC(C)(O)C(C(=O)OCC)C1c1ccc(Br)cc1 (configuration not stated) | -28.5 |  | 18.4 µM [falling, partial curve]
CC(=O)c1sc2nc(C)cc(C)c2c1N | 64.7 | 6.51 µM [rising, full curve] | 7.31 µM [rising, partial curve]
